First the molecules themselves.
B1: antibody I100Q (antibody, human IgG1, V domains shown)
VH: QVQLVQSGAEVKKPGASVKVSCKASGYTFTNHYMHWVRQAPGQGLEWMGIINPISGSTSNAQKFQGRVTMTRDTSTSTVYMELSSLRSEDTAVYYCARDQVDAFDFWGQGTMVTVSS
VL: AIQLTQSPSSLSASVGDRVTITCRASQGISSALVWYQQKPGKAPKLLIYDASSLESGVPSRFSGSGSGTDFTLTISSLQPEDFATYYCQQFNDYFTFGPGTKVDIK
B2: antibody I100S (antibody, human IgG1, V domains shown)
VH: QVQLVQSGAEVKKPGASVKVSCKASGYTFTNHYMHWVRQAPGQGLEWMGIINPISGSTSNAQKFQGRVTMTRDTSTSTVYMELSSLRSEDTAVYYCARDSVDAFDFWGQGTMVTVSS
VL: AIQLTQSPSSLSASVGDRVTITCRASQGISSALVWYQQKPGKAPKLLIYDASSLESGVPSRFSGSGSGTDFTLTISSLQPEDFATYYCQQFNDYFTFGPGTKVDIK
B3: antibody I100E (antibody, human IgG1, V domains shown)
VH: QVQLVQSGAEVKKPGASVKVSCKASGYTFTNHYMHWVRQAPGQGLEWMGIINPISGSTSNAQKFQGRVTMTRDTSTSTVYMELSSLRSEDTAVYYCARDEVDAFDFWGQGTMVTVSS
VL: AIQLTQSPSSLSASVGDRVTITCRASQGISSALVWYQQKPGKAPKLLIYDASSLESGVPSRFSGSGSGTDFTLTISSLQPEDFATYYCQQFNDYFTFGPGTKVDIK
B4: antibody I100T (antibody, human IgG1, V domains shown)
VH: QVQLVQSGAEVKKPGASVKVSCKASGYTFTNHYMHWVRQAPGQGLEWMGIINPISGSTSNAQKFQGRVTMTRDTSTSTVYMELSSLRSEDTAVYYCARDTVDAFDFWGQGTMVTVSS
VL: AIQLTQSPSSLSASVGDRVTITCRASQGISSALVWYQQKPGKAPKLLIYDASSLESGVPSRFSGSGSGTDFTLTISSLQPEDFATYYCQQFNDYFTFGPGTKVDIK
B5: antibody I100F (antibody, human IgG1, V domains shown)
VH: QVQLVQSGAEVKKPGASVKVSCKASGYTFTNHYMHWVRQAPGQGLEWMGIINPISGSTSNAQKFQGRVTMTRDTSTSTVYMELSSLRSEDTAVYYCARDFVDAFDFWGQGTMVTVSS
VL: AIQLTQSPSSLSASVGDRVTITCRASQGISSALVWYQQKPGKAPKLLIYDASSLESGVPSRFSGSGSGTDFTLTISSLQPEDFATYYCQQFNDYFTFGPGTKVDIK
B6: antibody I100K (antibody, human IgG1, V domains shown)
VH: QVQLVQSGAEVKKPGASVKVSCKASGYTFTNHYMHWVRQAPGQGLEWMGIINPISGSTSNAQKFQGRVTMTRDTSTSTVYMELSSLRSEDTAVYYCARDKVDAFDFWGQGTMVTVSS
VL: AIQLTQSPSSLSASVGDRVTITCRASQGISSALVWYQQKPGKAPKLLIYDASSLESGVPSRFSGSGSGTDFTLTISSLQPEDFATYYCQQFNDYFTFGPGTKVDIK
B7: antibody I100M (antibody, human IgG1, V domains shown)
VH: QVQLVQSGAEVKKPGASVKVSCKASGYTFTNHYMHWVRQAPGQGLEWMGIINPISGSTSNAQKFQGRVTMTRDTSTSTVYMELSSLRSEDTAVYYCARDMVDAFDFWGQGTMVTVSS
VL: AIQLTQSPSSLSASVGDRVTITCRASQGISSALVWYQQKPGKAPKLLIYDASSLESGVPSRFSGSGSGTDFTLTISSLQPEDFATYYCQQFNDYFTFGPGTKVDIK
B8: antibody A-1 (antibody, V domains shown)
VH: QVQLVQSGAEVKKPGASVKVSCKASGYTFTNHYMHWVRQAPGQGLEWMGLINPWHGTFSNAQKFQGRVTMTRDTSTSTVYMELSSLRSEDTAVYYCARDAVDAFDFWGQGTMVTVSS
VL: AIQLTQSPSSLSASVGDRVTITCRASQGISSALVWYQQKPGKAPKLLIYDASSLESGVPSRFSGSGSGTDFTLTISSLQPEDFATYYCQQFNDYFTFGPGTKVDIK

Chains of the proteins cited; added tags and fusions are not shown. Residues count along the entry.
UniProt Q9GZV9, residues 25-251: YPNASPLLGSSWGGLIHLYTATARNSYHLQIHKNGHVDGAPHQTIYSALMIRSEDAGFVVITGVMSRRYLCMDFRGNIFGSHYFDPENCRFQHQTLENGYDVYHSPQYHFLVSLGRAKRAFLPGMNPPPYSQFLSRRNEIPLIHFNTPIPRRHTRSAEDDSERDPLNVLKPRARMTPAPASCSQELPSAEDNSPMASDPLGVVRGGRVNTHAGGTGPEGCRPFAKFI

Among the data in patent publication US20250163140A1 are binding values, retold here.

Results are given in words; binding and its absence hold for the method and conditions named. Some binding calls cover weakened binding; strength is not graded here.

The target of one experiment is Recombinant Human FGF-23 (R&D Systems, Cat No. 2604-FG-025/CF) (human) (UniProt Q9GZV9). As to the kind of experiment: SPR, antibody captured by anti-human IgG, FGF-23 analyte. (SPR reads the build-up and loss of mass on a sensor chip optically.)
For B1, the binding result is “binds”.

For B2, the binding result is listed as “binds”.

For the molecule B3, the binding result is given as “binds”.

B4: the binding result is given as “binds”.

As to B5, the binding result is reported as “binds”.

Regarding B6, the binding result is given as “binds”.

Regarding B7, the binding entry was “binds”.

The target is the same in another experiment. The experiment is described as follows: SPR, antibody captured on Protein A chip, FGF-23 analyte.
On to B8, for which the binding entry is “binds”.
